For this experiment, the target named is T1, Flag-SNAPIN (Snapin full length in PCDH-3xFlag-3xHA-EF1-puromycin vector) (UniProt Q9Z266).
T1 sequence: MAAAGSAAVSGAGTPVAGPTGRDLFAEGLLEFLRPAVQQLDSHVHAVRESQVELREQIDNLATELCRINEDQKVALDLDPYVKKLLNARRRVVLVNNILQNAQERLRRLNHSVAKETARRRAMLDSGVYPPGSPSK
Kind of experiment: co-IP; Flag-SNAPIN in Min6 lysate (1% Triton X-100, 50 mM Tris-HCl pH 7.4, 150 mM NaCl, 1 mM EDTA, 1% sodium deoxycholate) on Flag beads, eluted with Flag peptide; Western blotting. In general terms: A western blot detects proteins with antibodies after separation by electrophoresis.

No constants are given. Whether binding was seen depends on the method and setting. In cells and extracts the contact can be indirect. Some binding calls cover weakened binding; strength is not graded here. Where a sequence is shown, tags or fusion partners need not be part of it.

B1: Bloc1s1 (protein, UniProt O55102 1-125)
chain: MLSRLLKEHQAKQNERKELQEKRRREAIAAATCLTEALVDHLNVGVAQAYMNQRKLDHEVKTLQVQAAQFAKQTGQWIGMVENFNQALKEIGDVENWARSIELDMRTIATALEYVYKGQLQSAPS
Take B1: the binding result was “binds”.
